Assay results published in publication PMC3556083.
These are yes or no findings as the source states them, for the method shown. Binding seen in cells or lysates may run through a third protein. These calls come from enrichment with a bait or labelling near it, and not all partners need be listed.

B1: TGM2 (protein, UniProt Q9WVJ6 1-686)
chain: MAEELNLERCDLEIQANGRDHHTADLCQQKLVLRRGQRFRLTLYFEGRGYEASVDRLTFGAVTGPDPSEEAGTKARFSLSDDVEEGSWSASVLDQQDNVLSLQLCTPANAPVGQYRLSLETSTGYQGSSFMLGHFILLFNAWCPADDVYLDSEAERREYVLTQQGFIYQGSVKFIKSVPWNFGQFEDGILDACLMLLDVNPKFLKDRSRDCSRRSSPIYVGRVVSGMVNCNDDQGVLLGRWDNNYGDGISPMAWIGSVDILRRWKEHGCQQVKYGQCWVFAAVACTVLRCLGIPTRVVTNYNSAHDQNSNLLIEYFRNEYGELESNKSEMIWNFHCWVESWMTRPDLQPGYEGWQAIDPTPQEKSEGTYCCGPVSVRAIKEGDLSTKYDASFVFAEVNADVVDWIRQSDGSVLKSINNSLVVGQKISTKSVGRDDREDITYTYKYPEGSPEEREVFTRANHLNKLAEKEETGVAMRIRVGDGMSLGNDFDVFAHIGNDTSESRECRLLLCARTVSYNGVLGPECGTEDINLTLDPYSENSIPLRILYEKYSGCLTESNLIKVRGLLVEPAANSYLLAERDLYLENPEIKIRILGEPKQNRKLVAEVSLKNPLSDSLYDCVFTVEGAGLTKEQKSVEVSDPVPAGDAVKVRVDLFPTDIGLHKLVVNFQCDKLKSVKGYRNIIIGPA
B2: HK1 (protein, UniProt P05708 1-918)
chain: MIAAQLLAYYFTELKDDQVKKIDKYLYAMRLSDEILIDILTRFKKEMKNGLSRDYNPTASVKMLPTFVRSIPDGSEKGDFIALDLGGSSFRILRVQVNHEKNQNVSMESEIYDTPENIVHGSGTQLFDHVADCLGDFMEKKKIKDKKLPVGFTFSFPCRQSKIDEAVLITWTKRFKASGVEGADVVKLLNKAIKKRGDYDANIVAVVNDTVGTMMTCGYDDQQCEVGLIIGTGTNACYMEELRHIDLVEGDEGRMCINTEWGAFGDDGSLEDIRTEFDRELDRGSLNPGKQLFEKMVSGMYMGELVRLILVKMAKEGLLFEGRITPELLTRGKFNTSDVSAIEKDKEGIQNAKEILTRLGVEPSDVDCVSVQHICTIVSFRSANLVAATLGAILNRLRDNKGTPRLRTTVGVDGSLYKMHPQYSRRFHKTLRRLVPDSDVRFLLSESGTGKGAAMVTAVAYRLAEQHRQIEETLAHFRLSKQTLMEVKKRLRTEMEMGLRKETNSKATVKMLPSFVRSIPDGTEHGDFLALDLGGTNFRVLLVKIRSGKKRTVEMHNKIYSIPLEIMQGTGDELFDHIVSCISDFLDYMGIKGPRMPLGFTFSFPCHQTNLDCGILISWTKGFKATDCEGHDVASLLRDAVKRREEFDLDVVAVVNDTVGTMMTCAYEEPTCEIGLIVGTGTNACYMEEMKNVEMVEGNQGQMCINMEWGAFGDNGCLDDIRTDFDKVVDEYSLNSGKQRFEKMISGMYLGEIVRNILIDFTKKGFLFRGQISEPLKTRGIFETKFLSQIESDRLALLQVRAILQQLGLNSTCDDSILVKTVCGVVSKRAAQLCGAGMAAVVEKIRENRGLDHLNVTVGVDGTLYKLHPHFSRIMHQTVKELSPKCTVSFLLSEDGSGKGAALITAVGVRLRGDPSIA
B3: YWHAQ (includes EG:22630) (protein, UniProt P68255 1-245)
chain: MEKTELIQKAKLAEQAERYDDMATCMKAVTEQGAELSNEERNLLSVAYKNVVGGRRSAWRVISSIEQKTDTSDKKLQLIKDYREKVESELRSICTTVLELLDKYLIANATNPESKVFYLKMKGDYFRYLAEVACGDDRKQTIENSQGAYQEAFDISKKEMQPTHPIRLGLALNFSVFYYEILNNPELACTLAKTAFDEAIAELDTLNEDSYKDSTLIMQLLRDNLTLWTSDSAGEECDAAEGAEN
B4: INPPL1 (protein, UniProt Q9WVR3 1-1257)
chain: MASVCGAPSPGGALGSQAPAWYHRDLSRAAAEELLARAGRDGSFLVRDSESVAGAFALCVLYQKHVHTYRILPDGEDFLAVQTSQGVPVRRFQTLGELIGLYAQPNQGLVCALLLPVEGEREPDPPDDRDASDVEDEKPPLPPRSGSTSISVPAGPSSPLPAPETPTTPAAESTPNGLSTVSHEYLKGSYGLDLEAVRGGASNLPHLTRTLVTSCRRLHSEVDKVLSGLEILSKVFDQQSSPMVTRLLQQQSLPQTGEQELESLVLKLSVLKDFLSGIQKKALKALQDMSSTAPPAPLQPSIRKAKTIPVQAFEVKLDVTLGDLTKIGKSQKFTLSVDVEGGRLVLLRRQRDSQEDWTTFTHDRIRQLIKSQRVQNKLGVVFEKEKDRTQRKDFIFVSARKREAFCQLLQLMKNKHSKQDEPDMISVFIGTWNMGSVPPPKNVTSWFTSKGLGKALDEVTVTIPHDIYVFGTQENSVGDREWLDLLRGGLKELTDLDYRPIAMQSLWNIKVAVLVKPEHENRISHVSTSSVKTGIANTLGNKGAVGVSFMFNGTSFGFVNCHLTSGNEKTTRRNQNYLDILRLLSLGDRQLSAFDISLRFTHLFWFGDLNYRLDMDIQEILNYISRREFEPLLRVDQLNLEREKHKVFLRFSEEEISFPPTYRYERGSRDTYAWHKQKPTGVRTNVPSWCDRILWKSYPETHIICNSYGCTDDIVTSDHSPVFGTFEVGVTSQFISKKGLSKTSDQAYIEFESIEAIVKTASRTKFFIEFYSTCLEEYKKSFENDAQSSDNINFLKVQWSSRQLPTLKPILADIEYLQDQHLLLTVKSMDGYESYGECVVALKSMIGSTAQQFLTFLSHRGEETGNIRGSMKVRVPTERLGTRERLYEWISIDKDDTGAKSKAPSVLRGSQEHRSGSRKPTSTEASCPLSKLFEEPEKPPPTGRPPAPPRAVPREESLNPRLKSEGTPEQEGVAAPPPKNSFNNPAYYVLEGVPHQLLPLEPTSFARAPIPPTTKNKVAITVPAPQLGRHRTPRVGEGSSSDEDSGGTLPPPDFPPPPLPDSAIFLPPNLDPLSMPVVRGRSVGEARGPPPPKAHPRPPLPPGTSPASTFLEEVASADDRSCSVLQMAKTLSEVDYSPGPGRSALLPNPLELQLPRGPSDYGRPLSFPPPRIRESIQEDLAEEAPCPQGGRASGLGEAGMGAWLRAIGLERYEEGLVHNGWDDLEFLSDITEEDLEEAGVQDPAHKRLLLDTLQLSK
B5: RRAS2 (protein, UniProt F7ESH4 1-204)
chain: MAAAGWRDGSGQEKYRLVVVGGGGVGKSALTIQFIQSYFVTDYDPTIEDSYTKQCVIDDRAARLDILDTAGQEEFGAMREQYMRTGEGFLLVFSVTDRGSFEEIYKFQRQILRVKDRDEFPMILIGNKADLDHQRQVTQEEGQQLARQLKVTYMEASAKIRMNVDQAFHELVRVIRKFQEQECPPSPEPTRKEKDKKGCHCVIF
B6: HP (protein, UniProt P06866 19-347)
chain: VELGNDATDIEDDSCPKPPEIANGYVEHLVRYRCRQFYKLQTEGDGIYTLNSEKQWVNPAAGDKLPKCEAVCGKPKHPVDQVQRIIGGSMDAKGSFPWQAKMISRHGLTTGATLISDQWLLTTAQNLFLNHSENATAKDIAPTLTLYVGKNQLVEIEKVVLHPERSVVDIGLIKLKQKVLVTEKVMPICLPSKDYVAPGRMGYVSGWGRNVNFRFTERLKYVMLPVADQEKCELHYEKSTVPEKKGAVSPVGVQPILNKHTFCAGLTKYEEDTCYGDAGSAFAVHDTEEDTWYAAGILSFDKSCAVAEYGVYVRATDLKDWVQETMAKN
B7: STAT4 (protein, UniProt Q66HB2 1-748)
chain: MSQWNQVQQLEIKFLEQVDQFYDDNFPMEIRHLLAQWIETQDWEVASNNETMATILLQNLLIQLDEQLGRVSKEKNLLLIHNLKRIRKVLQGKFHGNPMHVAVVISNCLREERRILAAANMPIQGPLEKSLQSSSVSERQRNVEHKVAAIKNSVQMTEQDTKYLEDLQDEFDYRYKTIQTMDQGDKNSILVNQEVLTLQEMLNNLDFKRKEALSKMTQIVNETDLLMNSMLLEELQDWKKRQQIACIGGPLHNGLDQLQNCFTLLAESLFQLRQQLEKLQEQSTKMTYEGDPIPAQRVHLLERATFLIYNLFKNSFVVERQPCMPTHPQRPMVLKTLIQFTVKLRLLIKLPELNYQVKVKASIDKNVSTLSNRRFVLCGTHIKAMSSEESSNGSLSVEFRHLQPKEMKCSTGSKGNEGCHMVTEELHSITFETQICLYGLTINLETSSLPVVMISNVSQLPNAWASIIWYNVSTNDSQNLVFFNNPPSVTLGQLLEVMSWQFSSYVGRGLNSDQLNMLAEKLTVQSNYSDGHLTWAKFCKEHLPGKTFTFWTWLEAILDLIKKHILPLWIDGYIMGFVSKEKERLLLKDKMPGTFLLRFSESHLGGITFTWVDQSENGEVRFHSVEPYNKARLSALPFADILRDYKVIMAENIPENPLKYLYPDIPKDKAFGKHYSSQPCEVSRPTERGDKGYVPSVFIPISTIRSDSTEPQSPSDLLPMSPSAYAVLRENLSPTTIETAMNSPYSAE
B8: EHD1 (protein, UniProt Q641Z6 1-534)
chain: MFSWVSKDARRKKEPELFQTVAEGLRQLYAQKLLPLEEHYRFHEFHSPALEDADFDNKPMVLLVGQYSTGKTTFIRHLIEQDFPGMRIGPEPTTDSFIAVMHGPTEGVVPGNALVVDPRRPFRKLNAFGNAFLNRFMCAQLPNPVLDSISIIDTPGILSGEKQRISRGYDFAAVLEWFAERVDRIILLFDAHKLDISDEFSEVIKALKNHEDKIRVVLNKADQIETQQLMRVYGALMWSLGKIINTPEVVRVYIGSFWSHPLLIPDNRKLFEAEEQDLFKDIQSLPRNAALRKLNDLIKRARLAKVHAYIISSLKKEMPNVFGKESKKKELVNNLGEIYQKIEREHQISSGDFPSLRKMQELLQTQDFSKFQALKPKLLDTVDDMLANDIARLMVMVRQEESLMPSQAVKGGAFDGTMNGPFGHGYGEGAGEGIDDVEWVVGKDKPTYDEIFYTLSPVNGKITGANAKKEMVKSKLPNTVLGKIWKLADVDKDGLLDDEEFALANHLIKVKLEGHELPADLPPHLIPPSKRRHE
B9: SOD2 (protein, UniProt P07895 25-222)
chain: KHSLPDLPYDYGALEPHINAQIMQLHHSKHHATYVNNLNVTEEKYHEALAKGDVTTQVALQPALKFNGGGHINHSIFWTNLSPKGGGEPKGELLEAIKRDFGSFEKFKEKLTAVSVGVQGSGWGWLGFNKEQGRLQIAACSNQDPLQGTTGLIPLLGIDVWEHAYYLQYKNVRPDYLKAIWNVINWENVSQRYIVCKK
B10: RAB21 (protein, UniProt Q6AXT5 1-223)
chain: MAAAGGGAAAAAGRAYSFKVVLLGEGCVGKTSLVLRYCENKFNDKHITTLQASFLTKKLNIGGKRVNLAIWDTAGQERFHALGPIYYRDSNGAILVYDVTDEDSFQKVKNWVKELRKMLGNEICLCIVGNKIDLEKERHVSIQEAESYAESVGAKHYHTSAKQNKGIEELFLDLCKRMIETAQVDERAKGNGSSQAGAARRGVQIIDDEPQAQSGSGGCCSSG

biological target: β2-adrenergic receptor (UniProt P07550); experiment: affinity purification with mass spectrometry; purified Flag-β2AR in rHDL immobilised on M1 anti-Flag resin, occupied by 50 µM BI-167107 (full agonist) or 50 µM carazolol (inverse agonist); adult rat heart cytosol (10 mg/ml, 4 mM CaCl2) overnight at 4°C; eluted with FLAG peptide and EDTA; gel slices, LC-MS; proteins of the M1 resin, empty rHDL and Ni-NTA controls subtracted; hits of either or both samples; only the target purified

binding | Binder
binds | B1
binds | B2
binds | B3
binds | B4
binds | B5
binds | B6
binds | B7
binds | B8
binds | B9
binds | B10
